PubChem BioAssay AID192 (DTP/NCI, 2004)
The list does not hold the whole screen: it is rich in T/C values a quarter to a half above the control, in often repeated tests (any T/C) and in doses without a T/C. Further doses and runs are listed elsewhere. T/C gives the treated animals as a percentage of the vehicle group. Some doses have a count of surviving animals in place of a T/C: the source holds a T/C of zero for them, seemingly a mark for toxic or unscored doses. Some survivor counts are full or nearly so, which does not show that the dose was tolerated: survival well below the control is almost never listed, so the zero probably covers shortened survival too. Counts of survivors are from the toxicity check (mostly the fifth day) where no day follows; animals may have died later. Schedules are NCI's codes, taken here to give the interval after Q, in days (D) or hours (H), and the number of doses after X. Some entries hold several experiments; the results are listed from low to high. Additions like (4×) say how often a value occurs here. For survival time, this PubChem deposit counts one and a half times the control or more as active, and values a quarter to a half above the control carry no call in these data; other NCI protocols may use other cut-offs. Some T/C values carry the count of animals alive at the toxicity check (mostly the fifth day); without a count, all were alive then.

System: BDF1 mice, B16 melanoma ip, median survival T/C
Assay: NCI In Vivo Anticancer Drug Screen. Data for tumor model B16 Melanoma (intraperitoneal) in B6D2F1 (BDF1) mice
Details: T/C endpoint: median survival time, higher T/C = longer survival
In short: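 Transplantable tumor model; survival or tumor size measured; reported as T/C, treated over vehicle control.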

[1] = dose: 25.0 mg/kg/injection, schedule: Q01DX009 (ip), vehicle: Klucel (hydroxypropylcellulose) (HPC)
[2] = dose: 50.0 mg/kg/injection, schedule: Q01DX009 (ip), vehicle: Klucel (hydroxypropylcellulose) (HPC)
[3] = dose: 100.0 mg/kg/injection, schedule: Q01DX009 (ip), vehicle: Klucel (hydroxypropylcellulose) (HPC)
[4] = dose: 32.0 mg/kg/injection, schedule: Q02DX009 (ip), vehicle: saline
[5] = dose: 50.0 mg/kg/injection, schedule: Q01DX009 (ip), vehicle: saline
[6] = dose: 100.0 mg/kg/injection, schedule: Q01DX009 (ip), vehicle: saline
[7] = dose: 200.0 mg/kg/injection, schedule: Q01DX009 (ip), vehicle: saline
[8] = dose: 12.5 mg/kg/injection, schedule: Q01DX009 (ip), vehicle: saline with Tween-80
[9] = dose: 12.5 mg/kg/injection, schedule: Q04DX003 (ip), vehicle: saline
[10] = dose: 100.0 mg/kg/injection, schedule: Q01DX009 (ip), vehicle: saline with Tween-80
[11] = dose: 200.0 mg/kg/injection, schedule: Q01DX009 (ip), vehicle: Klucel (hydroxypropylcellulose) (HPC)
[12] = dose: 400.0 mg/kg/injection, schedule: Q01DX009 (ip), vehicle: Klucel (hydroxypropylcellulose) (HPC)
[13] = dose: 200.0 mg/kg/injection, schedule: Q01DX009 (ip), vehicle: saline with Tween-80

**Q.** Which survivor count (dose: 0.19 mg/kg/injection, schedule: Q01DX009 (ip), vehicle: Klucel (hydroxypropylcellulose) (HPC)) does the source give for `O=C1CN=C(c2ccccc2Cl)c2cc(Cl)ccc2N1` here?
**A.** The survivor count was 10 of 10.

**Q.** What about the survivor count (dose: 6.25 mg/kg/injection, schedule: Q01DX009 (ip), vehicle: Klucel (hydroxypropylcellulose) (HPC)) of the same compound?
**A.** The survivor count was 10 of 10.

**Q.** And the survivor count (dose: 12.5 mg/kg/injection, schedule: Q01DX009 (ip), vehicle: Klucel (hydroxypropylcellulose) (HPC))?
**A.** Its survivor count is 9 of 10.

**Q.** What about the survivor count [1] of the same compound?
**A.** Its survivor count is 9 of 10.

**Q.** What about the survivor count [2] of the same compound?
**A.** Its survivor count is 8 of 10.

**Q.** And the survivor count [3]?
**A.** The survivor count was 10 of 10.

**Q.** How did the T/C [1] turn out when `CC1CCCN(C)C1` (configuration not stated) was run?
**A.** The T/C was 126 % of control.

**Q.** Which survivor count (dose: 0.25 mg/kg/injection, schedule: Q01DX009 (ip), vehicle: other) does the source give for `CCOC(=O)CN1CCC2CC1c1c([nH]c3ccccc13)C2c1cc2c(cc1OC)N(C)C1C(O)(C(=O)OC)C(OC(C)=O)C3(CC)C=CCN4CCC21C43` (configuration not stated) here?
**A.** The survivor count was 10 of 10.

**Q.** What does the source list for `C1CN(P2(N3CC3)=NP(N3CC3)(N3CC3)=NP(N3CC3)(N3CC3)=N2)CCO1` (configuration not stated)?
**A.** T/C (dose: 3.13 mg/kg/injection, schedule: Q01DX009 (ip), vehicle: saline): 142 % of control; T/C (dose: 4.0 mg/kg/injection, schedule: Q02DX009 (ip), vehicle: saline): 125 % of control; T/C (dose: 6.25 mg/kg/injection, schedule: Q01DX009 (ip), vehicle: saline): 107, 124, 125, 126, 133, 142 % of control; T/C (dose: 6.25 mg/kg/injection, schedule: Q02DX009 (ip), vehicle: saline): 125 and 126 % of control; T/C (dose: 8.0 mg/kg/injection, schedule: Q02DX009 (ip), vehicle: saline): 141 and 144 % of control; T/C (dose: 12.5 mg/kg/injection, schedule: Q01DX009 (ip), vehicle: saline): 116, 140, 148, 162, 164, 166 % of control; T/C (dose: 12.5 mg/kg/injection, schedule: Q02DX009 (ip), vehicle: saline): 131 % of control; T/C (dose: 16.0 mg/kg/injection, schedule: Q02DX009 (ip), vehicle: saline): 129 % of control [8 of 10 alive]; T/C (dose: 25.0 mg/kg/injection, schedule: Q01DX009 (ip), vehicle: saline): 149, 164, 166, 178, 188, 217 % of control; T/C [4]: 122, 206, 224 % of control; survivor count [4]: 9 of 10; T/C [5]: 108 and 208 % of control; survivor count [5]: 10 of 10; survivor count (dose: 50.0 mg/kg/injection, schedule: Q02DX009 (ip), vehicle: saline): 10 of 10; survivor count (dose: 64.0 mg/kg/injection, schedule: Q02DX009 (ip), vehicle: saline): 10 of 10; survivor count [6]: 9 of 10 (2×) and 10 of 10; survivor count (dose: 100.0 mg/kg/injection, schedule: Q02DX009 (ip), vehicle: saline): 10 of 10; survivor count (dose: 128.0 mg/kg/injection, schedule: Q02DX009 (ip), vehicle: saline): 10 of 10; survivor count [7]: 8 of 10 and 9 of 10 (2×); survivor count (dose: 200.0 mg/kg/injection, schedule: Q02DX009 (ip), vehicle: saline): 10 of 10; survivor count (dose: 256.0 mg/kg/injection, schedule: Q02DX009 (ip), vehicle: saline): 9 of 10; survivor count (dose: 512.0 mg/kg/injection, schedule: Q02DX009 (ip), vehicle: saline): 10 of 10

**Q.** Which results are given for `O=C(C=C(C(F)(F)F)C(F)(F)F)c1cccc(S(=O)(=O)F)c1`?
**A.** T/C (dose: 3.13 mg/kg/injection, schedule: Q04DX003 (ip), vehicle: saline): 130 % of control; T/C (dose: 6.25 mg/kg/injection, schedule: Q04DX003 (ip), vehicle: saline): 128 % of control; survivor count [8]: 10 of 10; T/C [9]: 141 % of control

**Q.** What does the source list for `C[C@]12CC[C@H](OC(=O)COc3ccc(N(CCCl)CCCl)cc3)C[C@@H]1CC[C@@H]1[C@@H]2CC[C@]2(C)NC(=O)CC[C@@H]12`?
**A.** T/C (dose: 2.0 mg/kg/injection, schedule: Q01DX009 (ip), vehicle: saline with Tween-80): 125 % of control; T/C (dose: 8.0 mg/kg/injection, schedule: Q01DX009 (ip), vehicle: saline with Tween-80): 130 % of control; T/C (dose: 16.0 mg/kg/injection, schedule: Q01DX009 (ip), vehicle: saline with Tween-80): 132 % of control; survivor count (dose: 64.0 mg/kg/injection, schedule: Q01DX009 (ip), vehicle: saline with Tween-80): 10 of 10

**Q.** For `CO[C@@H](C=O)O[C@@H](C=O)CO`, which survivor count [6] is on record?
**A.** The survivor count was 1 of 10.

**Q.** And the survivor count (dose: 100.0 mg/kg/injection, schedule: Q04DX003 (ip), vehicle: saline)?
**A.** Its survivor count is 10 of 10.

**Q.** And the survivor count [7]?
**A.** Its survivor count is 0 of 10.

**Q.** And the survivor count (dose: 200.0 mg/kg/injection, schedule: Q04DX003 (ip), vehicle: saline)?
**A.** The survivor count was 10 of 10.

**Q.** And the survivor count (dose: 400.0 mg/kg/injection, schedule: Q04DX003 (ip), vehicle: saline)?
**A.** The survivor count was 8 of 10.

**Q.** `CN1CCC(=C(C#N)C#N)CC1` was tested. Which survivor count [9] did it give?
**A.** Its survivor count is 10 of 10.

**Q.** What about the survivor count (dose: 25.0 mg/kg/injection, schedule: Q04DX003 (ip), vehicle: saline) of the same compound?
**A.** The survivor count was 10 of 10.

**Q.** And the survivor count (dose: 50.0 mg/kg/injection, schedule: Q04DX003 (ip), vehicle: saline)?
**A.** The survivor count was 10 of 10.

**Q.** For `CC(=O)O[C@@H]1[C@@H](O)C2=C3[C@]4(C)[C@@H]1C(C)(C)C(=O)C[C@@H]4[C@]3(O)[C@H](OC(C)=O)[C@@]1(C[C@@H]1C)C2=O`, which survivor count (dose: 6.25 mg/kg/injection, schedule: Q01DX009 (ip), vehicle: saline with Tween-80) is on record?
**A.** Its survivor count is 6 of 10.

**Q.** And the survivor count [8]?
**A.** The survivor count was 8 of 10.

**Q.** What about the survivor count (dose: 25.0 mg/kg/injection, schedule: Q01DX009 (ip), vehicle: saline with Tween-80) of the same compound?
**A.** The survivor count was 6 of 10.

**Q.** And the survivor count (dose: 50.0 mg/kg/injection, schedule: Q01DX009 (ip), vehicle: saline with Tween-80)?
**A.** Its survivor count is 3 of 10.

**Q.** And the survivor count [10]?
**A.** Its survivor count is 4 of 10 and 8 of 10.

**Q.** Which survivor count [3] does the source give for `O=C(Nc1ccc(F)cc1)C(c1ccccc1)c1ccccc1` here?
**A.** Its survivor count is 10 of 10.

**Q.** What about the survivor count [11] of the same compound?
**A.** The survivor count was 10 of 10.

**Q.** And the survivor count [12]?
**A.** The survivor count was 10 of 10.

**Q.** With `CCN(C(=O)Nc1ccccc1OC)c1ccccc1` as the compound, how does the survivor count [11] read?
**A.** The survivor count was 6 of 6.

**Q.** And the survivor count [12]?
**A.** The survivor count was 2 of 6.

**Q.** Which survivor count [13] does the source give for `COC(=O)c1cccc(C)c1O` here?
**A.** Its survivor count is 8 of 10.

**Q.** For `COc1ccc(C(N)=O)cc1N=NN(C)C`, which survivor count [2] is on record?
**A.** Its survivor count is 10 of 10.

**Q.** What about the survivor count [3] of the same compound?
**A.** The survivor count was 8 of 10 and 10 of 10.

**Q.** Which results are given for `CCCCCCCCCCCCCCCCCCNC(=O)Nc1ccccc1CC`?
**A.** survivor count [10]: 10 of 10; survivor count [13]: 10 of 10

**Q.** How did the survivor count (dose: 400.0 mg/kg/injection, schedule: Q01DX009 (ip), vehicle: other) turn out when `CCCCCCC(O)CCCC` (configuration not stated) was run?
**A.** Its survivor count is 8 of 10.

**Q.** `CC(=O)n1cc(F)c(=O)[nH]c1=O` was tested. Which survivor count (dose: 40.0 mg/kg/injection, schedule: Q01DX009 (ip), vehicle: Klucel (hydroxypropylcellulose) (HPC)) did it give?
**A.** The survivor count was 10 of 10.

**Q.** And the survivor count (dose: 60.0 mg/kg/injection, schedule: Q01DX009 (ip), vehicle: Klucel (hydroxypropylcellulose) (HPC))?
**A.** The survivor count was 10 of 10.

**Q.** Which results are given for `O=C(Nc1ccc(C(=O)O)cc1)Nc1nccs1`?
**A.** T/C (dose: 50.0 mg/kg/injection, schedule: Q01DX009 (ip), vehicle: distilled water + Tween-80): 125 % of control; survivor count (dose: 400.0 mg/kg/injection, schedule: Q01DX009 (ip), vehicle: distilled water + Tween-80): 8 of 10

**Q.** Which survivor count (dose: 30.0 mg/kg/injection, schedule: Q01DX009 (ip), vehicle: Klucel (hydroxypropylcellulose) (HPC)) does the source give for `CCCCc1c(OC)cc(O)c2c1C(=O)c1[nH]c(C(=O)O)c(O)c(=O)c1C2=O` here?
**A.** Its survivor count is 10 of 10.
